The text below walks through data of patent US20070253950A1.

Protein sequences, listed by entry. Tags and fused reporters are not part of them. Lines headed by an entry give the natural chain unless they say otherwise; changes in a name come on top.
UniProt Q62151: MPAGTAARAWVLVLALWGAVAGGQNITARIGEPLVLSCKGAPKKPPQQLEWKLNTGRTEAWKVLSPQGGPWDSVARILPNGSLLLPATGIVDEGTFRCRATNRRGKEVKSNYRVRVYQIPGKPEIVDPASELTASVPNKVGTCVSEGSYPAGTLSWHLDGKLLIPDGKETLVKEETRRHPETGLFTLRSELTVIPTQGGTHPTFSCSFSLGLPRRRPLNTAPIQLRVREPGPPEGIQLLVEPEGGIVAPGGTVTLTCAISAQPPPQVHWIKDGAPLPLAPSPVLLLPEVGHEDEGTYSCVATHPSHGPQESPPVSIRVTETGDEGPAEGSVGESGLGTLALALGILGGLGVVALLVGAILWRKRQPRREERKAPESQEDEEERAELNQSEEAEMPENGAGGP

In test [1] the target is murine RAGE-Fc (murine) (UniProt Q62151). Put plainly: ELISA, antigen coated. On the technique in general: ELISA stands for enzyme-linked immunosorbent assay.
The target is the same in test [2]. The experiment in a line: BIACORE direct binding, RAGE-Fc on CM5 chip, antibody 50 and 100 nM. Background: Surface plasmon resonance follows binding to a sensor surface in real time, without labels.

No constants are given. Whether binding was seen depends on the method and setting. Some results given as binding are weak or reduced against the parent protein; the word gives no strength.

B1: XT-M4 (antibody, V domains shown)
VH: EVQLVESGGGLVQPGRSLKLSCVVSGFTFNNYWMTWIRQTPGKGLEWVASINNSGDNTYYPDSVKDRFTISRDNAKSTLYLQMNSLRSEDTATYYCTRGGDITTGFDYWGQGVMVTVSS
VL: DIQMTQSPSSMSVSLGDTITITCRASQDVGIYVNWFQQKPGKSPRRMIYRATNLADGVPSRFSGSRSGSIYSLTISSLESEDVADYHCLEFDEHPLTFGSGTKVEIK
As for B1, the binding entry with murine RAGE-Fc (murine) [1] and with murine RAGE-Fc (murine) [2] was “binds” throughout.
